Measured data: PubChem BioAssay AID652243 (Drosophila RNAi Screening Center, 2013)
The screen tested about 24,000 reagents; this is an unselected part of those with a known target gene and a result. Over the whole deposit, 246 (1%) were called active. 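Plates not normalised; calls are printed but the firefly/Renilla ratio behind them is not deposited; fold cut for lowering reported inconsistently.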 Raw values vary from plate to plate and are shown uncorrected. Names joined by + are all predicted targets of the reagent. Not given: the amount of reagent.

Screen: 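Knock-downs that decrease or increase androgen receptor reporter signal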 (primary screen)
Cell system: Drosophila S2R+ cells
Reagent: long dsRNA against Drosophila genes
Timing: 72 h (48 h, then 24 h hormone)
Treatment: synthetic androgen R1881 at 10 nM for 24 h
Detection: 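Per-well raw luminescence of the androgen-driven firefly reporter and of the Renilla control, two replicates each, without normalisation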
Scale: firefly reporter light: higher = more light from androgen-responsive reporter; Renilla control light: higher = more constitutive control signal (cell number, transfection)
Rule for the call: 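Across duplicate plates, a knock-down whose log firefly/Renilla ratio shifted a set fold down or up from the GFP/LacZ control mean was a hit; the downward cut appears as both 1.5 and 3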
Meaning of the calls: active = hit: reporter lowered or raised; inactive = no hit

Target gene | dsRNA | firefly reporter light, replicate 1 | firefly reporter light, replicate 2 | Renilla control light, replicate 1 | Renilla control light, replicate 2 | Outcome
Con (Connectin) | DRSC08652 | 7.51e5 | 9.16e5 | 6.42e5 | 1.34e6 | inactive
CG31457 | DRSC22935 | 5.18e5 | 6.62e5 | 1.79e6 | 2.27e6 | inactive
CG31457 | DRSC29229 | 4.40e5 | 6.80e5 | 1.23e6 | 1.25e6 | inactive
CG11837 | DRSC14397 | 50670 | 46013 | 3.81e5 | 3.87e5 | inactive
U2af50 (U2 small nuclear riboprotein auxiliary factor 50) | DRSC20297 | 76826 | 65222 | 5.57e5 | 5.10e5 | inactive
U2af50 (U2 small nuclear riboprotein auxiliary factor 50) | DRSC22867 | 4.69e5 | 1.09e6 | 4.29e5 | 6.41e5 | inactive
MFS18 (Major Facilitator Superfamily Transporter 18) | DRSC00452 | 1.08e6 | 1.40e6 | 2.37e6 | 2.33e6 | inactive
Prp39 (pre-mRNA processing factor 39) | DRSC15133 | 21966 | 23352 | 4.66e5 | 3.47e5 | active
Prp39 (pre-mRNA processing factor 39) | DRSC25186 | 1.44e6 | 1.59e6 | 9.03e5 | 1.07e6 | inactive
Tmep (Transmembrane endosomal protein) | DRSC08215 | 6.94e5 | 8.49e5 | 1.64e6 | 1.83e6 | inactive
Tmep (Transmembrane endosomal protein) | DRSC26652 | 3.61e5 | 3.04e5 | 7.39e5 | 6.94e5 | inactive
Prosalpha1R + Prosalpha1 | DRSC07515 | 1.12e6 | 1.26e6 | 1.38e6 | 1.78e6 | inactive
Prosalpha1R + Prosalpha1 | DRSC29087 | 7.87e5 | 5.53e5 | 1.11e6 | 1.13e6 | inactive
Sdc (Syndecan) | DRSC04654 | 2.88e5 | 3.46e5 | 1.71e6 | 1.62e6 | inactive
Sdc (Syndecan) | DRSC25762 | 5.76e5 | 3.19e5 | 2.27e6 | 8.86e5 | inactive
Sdc (Syndecan) | DRSC38962 | 7.55e5 | 8.92e5 | 2.17e6 | 2.05e6 | inactive
Hexo2 (Hexosaminidase 2) | DRSC18671 | 5.15e5 | 5.33e5 | 3.44e6 | 4.33e6 | inactive
CG13643 | DRSC14641 | 1.43e5 | 1.49e5 | 2.31e6 | 1.94e6 | inactive
CG13643 | DRSC14642 | 1.39e5 | 1.81e5 | 2.13e6 | 2.37e6 | inactive
CG13643 | DRSC28349 | 4.17e5 | 8.21e5 | 7.33e5 | 1.42e6 | inactive
CG3246 | DRSC00584 | 1.02e5 | 94079 | 7.47e5 | 7.98e5 | inactive
Jig | DRSC14974 | 1.76e5 | 1.65e5 | 2.45e6 | 3.26e6 | inactive
Idh3g | DRSC15699 | 2.05e5 | 2.01e5 | 2.61e6 | 2.50e6 | inactive
Idh3g | DRSC26628 | 3.39e5 | 2.92e5 | 6.10e5 | 7.05e5 | inactive
P5cr (Pyrroline 5-carboyxlate reductase) | DRSC16782 | 1.80e5 | 1.72e5 | 2.47e6 | 2.75e6 | inactive
CG6638 | DRSC10680 | 1.51e5 | 1.35e5 | 1.49e6 | 1.31e6 | inactive
CG6638 | DRSC24246 | 8.69e5 | 9.47e5 | 1.30e6 | 1.06e6 | inactive
Ptpa (Phosphotyrosyl phosphatase activator) | DRSC00776 | 8.63e5 | 8.10e5 | 2.57e6 | 1.81e6 | inactive
Ptpa (Phosphotyrosyl phosphatase activator) | DRSC28747 | 5.52e5 | 6.31e5 | 1.23e6 | 1.21e6 | inactive
Pop5 (POP5 ribonuclease P/MRP subunit) | DRSC10074 | 3.74e5 | 2.27e5 | 2.91e6 | 1.84e6 | inactive
CG14492 | DRSC06463 | 82875 | 83534 | 1.02e6 | 1.02e6 | inactive
Rbfox1 (RNA-binding Fox protein 1) | DRSC09034 | 4.11e5 | 4.92e5 | 2.69e6 | 2.48e6 | inactive
Rbfox1 (RNA-binding Fox protein 1) | DRSC21378 | 1.15e6 | 1.10e6 | 2.06e6 | 2.08e6 | inactive
Rbfox1 (RNA-binding Fox protein 1) | DRSC22992 | 7.78e5 | 8.75e5 | 1.69e6 | 2.12e6 | inactive
Rbfox1 (RNA-binding Fox protein 1) | DRSC25775 | 6.39e5 | 6.07e5 | 8.44e5 | 5.98e5 | inactive
Ugt37A1 (UDP-glycosyltransferase family 37 member A1) | DRSC02114 | 1.60e5 | 1.61e5 | 1.12e6 | 1.58e6 | inactive
CG2120 | DRSC18207 | 2.04e5 | 2.86e5 | 2.81e6 | 2.76e6 | inactive
CG2120 | DRSC26944 | 4.16e5 | 2.87e5 | 7.76e5 | 5.56e5 | inactive

Only “Renilla control light, replicate 2” (10 entries from above):
Prosalpha1R + Prosalpha1 [DRSC29087] = 1.13e6
Sdc (Syndecan) [DRSC04654] = 1.62e6
Sdc (Syndecan) [DRSC25762] = 8.86e5
Sdc (Syndecan) [DRSC38962] = 2.05e6
Hexo2 (Hexosaminidase 2) [DRSC18671] = 4.33e6
CG13643 [DRSC14641] = 1.94e6
CG13643 [DRSC14642] = 2.37e6
CG13643 [DRSC28349] = 1.42e6
CG3246 [DRSC00584] = 7.98e5
Jig [DRSC14974] = 3.26e6

The results go on.
Target gene | dsRNA | firefly reporter light, replicate 1 | firefly reporter light, replicate 2 | Renilla control light, replicate 1 | Renilla control light, replicate 2 | Outcome
Atg16 (Autophagy-related 16) | DRSC15052 | 1.05e5 | 75537 | 6.80e5 | 4.45e5 | inactive
Atg16 (Autophagy-related 16) | DRSC15300 | 1.24e5 | 98934 | 1.36e6 | 1.47e6 | inactive
Atg16 (Autophagy-related 16) | DRSC15375 | 1.93e5 | 1.96e5 | 1.61e6 | 2.64e6 | inactive
CG42588 | DRSC09820 | 1.45e5 | 1.54e5 | 1.19e6 | 1.99e6 | inactive
CG42588 | DRSC22121 | 6.46e5 | 6.45e5 | 2.67e6 | 2.39e6 | inactive
CG42588 | DRSC26914 | 4.17e5 | 3.46e5 | 4.51e5 | 3.00e5 | inactive
CG42588 | DRSC37828 | 7.98e5 | 5.65e5 | 2.57e6 | 2.12e6 | inactive
PPP4R2r (Protein phosphatase 4 regulatory subunit 2-related protein) | DRSC18695 | 3.53e5 | 2.92e5 | 2.52e6 | 2.73e6 | inactive
PPP4R2r (Protein phosphatase 4 regulatory subunit 2-related protein) | DRSC21503 | 7.65e5 | 5.42e5 | 3.23e6 | 2.15e6 | inactive
PPP4R2r (Protein phosphatase 4 regulatory subunit 2-related protein) | DRSC27825 | 2.05e5 | 1.52e5 | 2.64e5 | 5.10e5 | active
eIF4E3 (eukaryotic translation initiation factor 4E3) | DRSC10952 | 1.09e6 | 8.94e5 | 1.61e6 | 1.93e6 | inactive
Sec24CD (Secretory 24CD) | DRSC00300 | 8.38e5 | 8.85e5 | 3.98e6 | 1.50e6 | inactive
CG34442 | DRSC38639 | 7.90e5 | 7.17e5 | 2.08e6 | 2.21e6 | inactive
CG1142 | DRSC12531 | 1.62e5 | 1.68e5 | 3.31e6 | 2.60e6 | inactive
CG1142 | DRSC27795 | 2.12e5 | 1.62e5 | 3.64e5 | 6.43e5 | inactive
CG3257 | DRSC04351 | 1.14e6 | 2.98e5 | 1.42e6 | 8.01e5 | inactive
CG3257 | DRSC27446 | 3.19e5 | 3.08e5 | 5.08e5 | 7.60e5 | inactive
betaNACtes1 (Nascent-associated complex beta-subunit-like, testis 1) | DRSC19534 | 5.12e5 | 4.69e5 | 3.47e6 | 4.14e6 | inactive
betaNACtes1 (Nascent-associated complex beta-subunit-like, testis 1) | DRSC26176 | 2.57e5 | 2.82e5 | 7.98e5 | 6.69e5 | inactive
CG30088 | DRSC21764 | 5.34e5 | 4.96e5 | 1.95e6 | 2.07e6 | inactive
CG30088 | DRSC24797 | 6.67e5 | 7.01e5 | 9.29e5 | 1.05e6 | inactive
